{"sequences": {"note": "By UniProt entry, the sequences of proteins in these tests, tags left out.", "UniProt P49023": "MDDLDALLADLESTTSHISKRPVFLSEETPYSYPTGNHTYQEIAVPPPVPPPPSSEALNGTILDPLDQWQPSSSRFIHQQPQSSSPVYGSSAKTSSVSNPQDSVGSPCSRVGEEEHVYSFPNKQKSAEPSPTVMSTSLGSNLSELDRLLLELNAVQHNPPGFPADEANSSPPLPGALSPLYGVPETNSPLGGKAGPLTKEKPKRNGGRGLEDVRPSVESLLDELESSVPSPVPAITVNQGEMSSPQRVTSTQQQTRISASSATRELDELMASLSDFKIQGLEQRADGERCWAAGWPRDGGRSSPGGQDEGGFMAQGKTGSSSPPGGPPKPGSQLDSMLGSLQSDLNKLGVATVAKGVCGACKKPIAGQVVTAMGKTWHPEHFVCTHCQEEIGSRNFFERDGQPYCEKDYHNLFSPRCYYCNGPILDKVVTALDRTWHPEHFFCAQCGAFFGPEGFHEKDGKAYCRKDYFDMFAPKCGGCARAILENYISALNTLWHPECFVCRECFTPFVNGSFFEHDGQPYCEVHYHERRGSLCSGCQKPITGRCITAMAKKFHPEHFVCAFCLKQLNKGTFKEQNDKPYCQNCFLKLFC"}, "source": "paper PMC10799014", "molecular_target": "paxillin, Venus-fragment fusion for BiFC (UniProt P49023)", "assay": "split reporter; BiFC with Venus fragments V1 and V2 in HeLa cells, 200 ng of each plasmid, fixed after 24 h, confocal microscopy with uniform laser settings", "note": "These are yes or no findings as the source states them, for the method shown. Binding seen in cells or lysates may run through a third protein. Some results given as binding are weak or reduced against the parent protein; the word gives no strength. Tags and fused reporters may be left off the sequences shown.", "data": [{"binder": "rapsyn, Venus-fragment fusion for BiFC (protein, UniProt Q13702 1-412) MGQDQTKQQIEKGLQLYQSNQTEKALQVWTKVLEKSSDLMGRFRVLGCLVTAHSEMGRYKEMLKFAVVQIDTARELEDADFLLESYLNLARSNEKLCEFHKTISYCKTCLGLPGTRAGAQLGGQVSLSMGNAFLGLSVFQKALESFEKALRYAHNNDDAMLECRVCCSLGSFYAQVKDYEKALFFPCKAAELVNNYGKGWSLKYRAMSQYHMAVAYRLLGRLGSAMECCEESMKIALQHGDRPLQALCLLCFADIHRSRGDLETAFPRYDSAMSIMTEIGNRLGQVQALLGVAKCWVARKALDKALDAIERAQDLAEEVGNKLSQLKLHCLSESIYRSKGLQRELRAHVVRFHECVEETELYCGLCGESIGEKNSRLQALPCSHIFHLRCLQNNGTRSCPNCRRSSMKPGFV", "values": [{"measurement": "binding", "result": "binds"}]}]}
